Measured values reported in patent US20050143356A1, “Selective inhibition of cyclooxygenase 1 in the treatment of diabetic nephropathy” (Vanderbilt University, priority 2003, published 2005).

Tested on: C57BLKS db/db mice
Conditions: 6 months treatment, untreated 298±35, p<0.01, n=8 in each group
Text: The C57BLKS db/db mice is a rodent model of type II diabetes mellitus. A LepR^db (db) mutation on chromosome 4 (G→T point mutation) has been identified in the leptin receptor gene. This mutation generates a new donor splice site, leading to prematurely termination of the intracellular domain of leptin receptor and lack of leptin signal transduction. C57BLKS db/db strain is more susceptible to the development of diabetic nephropathy than the C57BL/6J db/db strain. Animals are characterized by obesity, insulin resistance, diabetes and diabetic nephropathy (DN). […]
Inhibitor was given for 6 months, while the control diabetic mice were given vehicle alone (n=8 per group). […] The urine samples were collected monthly and albumin/creatinine ratio was determined by enzyme linked immunosorbent assays (Exocell Inc, PA, USA). Glomerular filtration rate (GFR) was determined using FITC-inulin clearance based on plasma elimination rate following single bolus intravenous injection.
Cyclooxygenase-1 (COX-1) is also abundantly expressed in the kidney, however its role in health and disease remains poorly defined. […] Glomerular filtration rate was also determined using FITC-inulin clearance.

Q: Which “Glomerular filtration rate (GFR), FITC-inulin clearance” value does the source give for `COc1ccc(-n2nc(C(F)(F)F)cc2-c2ccc(Cl)cc2)cc1` [SC8560] here?
A: 462±46 ul/min/mouse
